In PubChem BioAssay AID2685 (National Center for Advancing Translational Sciences (NCATS), 2010):
The whole screen tested about 320,000 compounds, of which about 2,100 (0.66%) were called active. Inconclusive means that the source gave no clear call. Such entries were picked first, then a sample of the others. Calls follow the shape of the dose curve; as a rule, active = well fitted inhibition curve with a large enough effect in the signal ratio, with a control signal flat (not every such curve was filed as active); inconclusive = small, poorly fitted or top-dose-only effect, or effect the other way, or a change in a side signal; inactive = flat fitted curve, though single readings scatter; the % refers to the signal ratio. A potency beside an inconclusive call is a rough fit, not a confirmed value.

assay: qHTS Assay for Lipid Storage Modulators in Drosophila S3 Cells; details: BODIPY lipid droplet fluorescence, 18-24 h, cells fed with added oleic acid; lipid storage change, negative = inhibition: at 46.1 µM (top of the series) unless noted
Outline: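 Drosophila S3 cells got compounds at several concentrations plus oleic acid (400 uM solution). Laser-scanning cytometry with 488 nm excitation read lipid droplets at 500-530 nm and cells at 575-640 nm. Percent activity was relative to 20 uM Triacsin C.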
% is scaled to controls: 0 for no effect and ±100 for the full control effect; potency is read from the fitted curve at half-maximal effect.

Row | SMILES | lipid storage change, negative = inhibition | Potency
1 | COC(=O)N1C(=O)[C@](c2ccc(OC)cc2)(C(C)C)N1C(=O)OC | inconclusive: -6.09% | 
2 | COc1ccccc1C(=O)N1CCN(Cc2cccnc2)CC1 | inconclusive: -2.96% | 
3 | CCCCCn1ccc(=O)c2c(C(F)(F)F)nccc21 | inconclusive: -25.7% | 
4 | CCOc1ccccc1OCC(=O)OCC(=O)NNC(=O)c1ccc([N+](=O)[O-])cc1 |  | inconclusive: 6.51 µM [falling, single point]
5 | COc1ccc(-c2cn(Cc3cccc(OC)c3)nn2)cc1 | inconclusive: 43% | 
6 | COCCNC(=O)C(c1ccc(C)o1)N(C(=O)C(=O)NC1CCCCC1)c1ccc(F)cc1 (stereo unspecified) | inconclusive: -8.59% | 
7 | O=C(O)CC(NS(=O)(=O)Cc1ccccc1)c1cccc([N+](=O)[O-])c1 (stereo unspecified) | inconclusive: -14.7% | 
8 | O=C(NCc1ccco1)Nc1cccs1 | inconclusive: -14.3% | 
9 | Cc1nn(C)c(NC(=O)c2ccc([N+](=O)[O-])cc2)c1Cl | inconclusive: -37% | 
10 | CSc1ccccc1C(=O)N1CCN(c2ccc(F)cc2)CC1 | inconclusive: 5.07% | 
11 | Cc1ccccc1C(=O)NC1CCN(CC(=O)Nc2c(C)cccc2C)CC1 | inconclusive: -21.2% | 
12 | COc1ccc(C2=NOC(C(=O)NCc3cccs3)C2)cc1 (stereo unspecified) |  | inconclusive: 6.51 µM [rising, full curve, poor fit]
13 | O=C(Nc1ccccc1NC(=O)c1ccco1)c1ccccc1 |  | active: 1.46 µM
14 | CCOC(=O)c1ccc(S(=O)(=O)NCCN2CCOCC2)cc1 |  | inconclusive: 3.26 µM [activator, full curve]
15 | Cc1nnsc1Sc1cccc(C(F)(F)F)c1 | inconclusive: -2.37% | 
16 | COc1ccc(NC(=S)N(CCN(C)C)C(C)c2ccco2)cc1 (stereo unspecified) |  | inconclusive: 14.6 µM [activator, partial curve, poor fit]
17 | Cc1c(C(=O)Nc2ccc(Oc3ccccc3)cc2)sc2nc3n(c(=O)c12)CCC3 |  | inconclusive: 29.1 µM [falling, single point]
18 | Cc1ccc(C)c(NCCC#N)c1 |  | inconclusive: 1.46 µM [falling, full curve, poor fit]
19 | CCN(CC)CCCC(C)NC(=O)c1cccc(S(=O)(=O)N2CCc3ccccc32)c1 (stereo unspecified) | inconclusive: 42.9% | 
20 | CCOC(=O)N1CCC2(CC1)C(C#N)=C(N)Oc1c2c(C)nn1-c1cccc(Cl)c1 | inconclusive: 28.7% | 
21 | CCOc1ccc(CCNC(=O)c2ccc(C)c(NC3=NC4CS(=O)(=O)CC4S3)c2)cc1 (stereo unspecified) | inconclusive: 3.97% | 
22 | COc1cc2c(cc1NC(=O)c1ccncc1)oc1ccccc12 | inconclusive: -3.43% | 
23 | CCC(CC)NC(=O)c1cc(OC)c(OC)c(OC)c1 | inconclusive: -26.2% | 
24 | COc1ccc(-c2nc(CS(=O)(=O)CC(=O)NCc3ccc(F)cc3)c(C)o2)cc1 | inconclusive: -20.3% | 
25 | COC(=O)[C@@H]1CC[C@H](C)[C@@H](c2ccc(C)cc2)N1C(=O)c1ccc(/C=N/O[C@@H](C)CN2CCCCc3nc(C)c(C)cc32)cc1 |  | inconclusive: 14.6 µM [falling, partial curve]
26 | Cc1ccc(S(=O)(=O)N2CCN(C(=O)CSc3nnnn3C)CC2)c(C)c1 | inconclusive: 5.64% | 

A second format for two compounds above.
CCCCCn1ccc(=O)c2c(C(F)(F)F)nccc21
  lipid storage change, negative = inhibition: inconclusive: -25.7%
CCOc1ccccc1OCC(=O)OCC(=O)NNC(=O)c1ccc([N+](=O)[O-])cc1
  Potency: inconclusive: 6.51 µM [falling, single point]

More results follow:

Row | SMILES | lipid storage change, negative = inhibition | Potency
27 | O=C1CN(C(=O)COc2c(Cl)cccc2Cl)c2ccccc2N1 | inconclusive | 
28 | CNS(=O)(=O)c1ccc(N=Cc2c(C)[nH]n(-c3ccc(C)cc3C)c2=O)cc1 |  | inconclusive: 29.1 µM [falling, single point]
29 | COC(=O)c1cc(C(=O)N2CCN(c3ncccn3)CC2)cc([N+](=O)[O-])c1 |  | inconclusive: 5.17 µM [activator, single point]
30 | COc1ccc(-c2c(C(F)(F)F)[nH]n3c(=O)cc(-c4ccccc4)nc23)cc1 | inconclusive: 18.4% | 
31 | O=C(c1ccco1)N1CCN(Cc2cccc3ccccc23)CC1 | inconclusive: 86.9% | 
32 | C/C(=N\N1CCCCC1)c1ccccc1O | inconclusive: 45.4% | 
33 | C=CCN(c1ccccc1)S(=O)(=O)c1cccc2cccnc12 | inconclusive: 26.6% | 
34 | CCOc1cc(NC(=O)c2cccs2)c(OCC)cc1NC(=O)CCC(=O)NCc1ccccn1 | inconclusive: 30.9% | 
35 | O=C(COc1ccccc1)Nc1cccc(-c2nc3ccccc3[nH]2)c1 | inconclusive: 0.533% | 
36 | Cc1nn(C(C)C(=O)O)c(C)c1[N+](=O)[O-] (stereo unspecified) | inactive: -18.1% | 
37 | CCc1cccc(NS(=O)(=O)c2cccc3cccnc23)c1 | inconclusive: -2.86% | 
38 | O=C(NCc1ccc(Cl)cc1)C1CCC(CNS(=O)(=O)c2ccccc2)CC1 (stereo unspecified) | inconclusive: -82.7% | 
39 | Cc1cc(/C=N/NC(=O)c2cccs2)c(C)n1-c1ccccc1 |  | inconclusive: 6.51 µM [activator, single point]
40 | CCOC(=O)CC1(NC(=O)C2CCC(=O)N(CCc3ccc(OC)cc3)C2)CCCCC1 (stereo unspecified) |  | inconclusive: 29.1 µM [falling, single point]
41 | CC(C)(C)N1CC23CCC(C[C@@H]2C1=O)O3 (stereo partly specified) | inconclusive: 42.3% | 
42 | CC(=O)Nc1ccccc1N(C)S(=O)(=O)c1ccc(C)cc1 | inconclusive: -28.5% | 
43 | Cc1cc(NC(=O)c2cccc(S(=O)(=O)N3CCCCCC3)c2)n(-c2ccccn2)n1 | inconclusive: 88.4% | 
44 | Cc1oc(-c2cccs2)nc1CS(=O)CC(=O)NCCCN1CC(C)CC(C)C1 (stereo unspecified) |  | inconclusive: 6.51 µM [falling, single point]
45 | O=C(Nc1cccc(O)c1)c1ccc(C(=O)c2ccccc2)o1 | inconclusive: -68.4% | 
46 | CC(C)Cn1c(N)c(C(=O)COC(=O)C2CC(=O)N(c3ccc4c(c3)OCCO4)C2)c(=O)n(C)c1=O (stereo unspecified) | inconclusive: -7.09% | 
47 | Cc1sc2ncnc(N3CCC(C(=O)NNC(=O)COc4ccc(Br)cc4)CC3)c2c1C |  | inconclusive: 0.103 µM [falling, full curve, poor fit]
48 | CCc1ccc(-c2nc(SCC(=O)NC3CCCC3)n[nH]2)cc1 | inconclusive: -96.8% | 
49 | COc1cccc(C(=O)c2cn(CC(=O)NCc3ccco3)c3nc(C)ccc3c2=O)c1 | inconclusive: -23.5% | 
50 | O=C(c1ccccc1S(=O)(=O)NCc1ccccc1)N1CCCC1 | inconclusive: 93.7% | 
51 | CN(C)S(=O)(=O)c1cccc(NC(=O)c2ccc(S(=O)(=O)N3CCCCC3)cc2)c1 |  | inconclusive: 16.4 µM [activator, single point]
52 | CCOC(=O)c1c(C)[nH]c(C(=O)COC(=O)CCC(=O)c2ccc3c(c2)OCCO3)c1C | inconclusive: -6.42% | 

Row | SMILES | lipid storage change, negative = inhibition | Potency
53 | Cc1ccc(-c2nnn(CC(=O)N(CC(=O)NC3CCCC3)c3ccccc3F)n2)o1 | inconclusive: 27.7% | 
54 | Cn1cc(Br)c(C(=O)NNC(=O)Nc2ccccc2C(F)(F)F)n1 |  | inconclusive: 0.013 µM [falling, full curve, poor fit]
55 | Nc1nc(CN2CCN(c3ccccc3)CC2)nc(Nc2ccc(Cl)cc2)n1 | inconclusive: -0.961% | 
56 | Cc1ccccc1NS(=O)(=O)c1ccc(N2CCCC2=O)cc1 |  | inconclusive: 0.291 µM [activator, full curve]
57 | CCOc1ccc(NC(=O)c2ccccc2OCC(=O)c2ccc(C)cc2)cc1 |  | inconclusive: 4.11 µM [activator, single point]
58 | COC(=O)c1[nH]c2ccc(Cl)cc2c1NC(=O)c1ccccc1[N+](=O)[O-] | inconclusive: -19.4% | 
59 | O=C(COC(=O)c1cc2c(s1)CCC2)Nc1ccc(F)cc1 | inconclusive: 17.2% | 
60 | Cc1ccc(Nc2nc(-c3ccc(O)cc3O)cs2)nc1 |  | inconclusive: 16.4 µM [cytotoxic, single point]
61 | COc1cc(S(=O)(=O)N2CCCCCC2)ccc1Cl | inconclusive: 41.8% | 
62 | S=c1[nH]nc(-c2ccc(Cl)cc2Cl)n1-c1ccccc1 | inconclusive: -17.6% | 
63 | C=CCOc1cccc(CNCc2ccncc2)c1 | inconclusive: -19% | 
64 | CNC(=O)c1cc(NC(=O)CCn2nc(-c3ccc(C)cc3)c3ccccc3c2=O)ccc1OC | inconclusive: 39.8% | 
65 | Cc1cc(=O)oc2cc(OCC(=O)OCC(=O)NC(=O)NC(C)C)ccc12 |  | inconclusive: 2.91 µM [cytotoxic, full curve]
66 | COc1cccc(C(=O)NCc2ccc(N3CCN(C(=O)OC(C)(C)C)CC3)cc2)c1 | inconclusive: -19.2% | 
67 | CN(CC(=O)Nc1ccccc1C(F)(F)F)C(=O)Cc1ccccc1F | inconclusive: 156% | 
68 | CCCCOc1ccc(CSc2nncn2N)cc1 | inconclusive: 19% | 
69 | O=C(COC(=O)Cc1cccc(F)c1)NCCc1ccccc1 | inconclusive: 1.78% | 
70 | CCc1ccc(NC(=O)N2CCN(C(=O)C3CCCO3)CC2)cc1 (stereo unspecified) | inconclusive: 37.6% | 
71 | CCOC(=O)[C@@H]1[C@H]2COc3cc(OC)ccc3[C@@H]2N2C(=O)N(c3cccc(C)c3)C(=O)[C@@]12C |  | inconclusive: 23.1 µM [activator, single point]
72 | COc1ccc(CNC(=O)CN(Cc2ccc(C)cc2)C(=O)c2csnn2)cc1 |  | inconclusive: 5.8 µM [activator, single point]
73 | CCCCNC(=O)CCC(=O)Nc1ccc2nc(N3CCC(C)CC3)cc(C)c2c1 | inconclusive: -21.2% | 
74 | CSc1ccccc1OCc1cc(C(=O)N2CCC(Oc3cccnc3)CC2)no1 |  | inconclusive: 8.2 µM [falling, partial curve]
75 | Cc1ccc(N2C(=O)N(CC(=O)N3c4ccccc4CC3C)C(=O)C2C)cc1 (stereo unspecified) |  | inconclusive: 3.26 µM [activator, partial curve]
76 | CC(C)CN(CCOc1cccc(N2C(=O)C3=C(CCCC3)C2=O)c1)CC(C)C | inconclusive: -5.98% | 

Filtered by structure: the entries above with a halogen
Row | SMILES | lipid storage change, negative = inhibition | Potency
3 | CCCCCn1ccc(=O)c2c(C(F)(F)F)nccc21 | inconclusive: -25.7% | 
6 | COCCNC(=O)C(c1ccc(C)o1)N(C(=O)C(=O)NC1CCCCC1)c1ccc(F)cc1 (stereo unspecified) | inconclusive: -8.59% | 
9 | Cc1nn(C)c(NC(=O)c2ccc([N+](=O)[O-])cc2)c1Cl | inconclusive: -37% | 
10 | CSc1ccccc1C(=O)N1CCN(c2ccc(F)cc2)CC1 | inconclusive: 5.07% | 
15 | Cc1nnsc1Sc1cccc(C(F)(F)F)c1 | inconclusive: -2.37% | 
20 | CCOC(=O)N1CCC2(CC1)C(C#N)=C(N)Oc1c2c(C)nn1-c1cccc(Cl)c1 | inconclusive: 28.7% | 
24 | COc1ccc(-c2nc(CS(=O)(=O)CC(=O)NCc3ccc(F)cc3)c(C)o2)cc1 | inconclusive: -20.3% | 
27 | O=C1CN(C(=O)COc2c(Cl)cccc2Cl)c2ccccc2N1 | inconclusive | 
30 | COc1ccc(-c2c(C(F)(F)F)[nH]n3c(=O)cc(-c4ccccc4)nc23)cc1 | inconclusive: 18.4% | 
38 | O=C(NCc1ccc(Cl)cc1)C1CCC(CNS(=O)(=O)c2ccccc2)CC1 (stereo unspecified) | inconclusive: -82.7% | 
47 | Cc1sc2ncnc(N3CCC(C(=O)NNC(=O)COc4ccc(Br)cc4)CC3)c2c1C |  | inconclusive: 0.103 µM [falling, full curve, poor fit]
53 | Cc1ccc(-c2nnn(CC(=O)N(CC(=O)NC3CCCC3)c3ccccc3F)n2)o1 | inconclusive: 27.7% | 
54 | Cn1cc(Br)c(C(=O)NNC(=O)Nc2ccccc2C(F)(F)F)n1 |  | inconclusive: 0.013 µM [falling, full curve, poor fit]
55 | Nc1nc(CN2CCN(c3ccccc3)CC2)nc(Nc2ccc(Cl)cc2)n1 | inconclusive: -0.961% | 
58 | COC(=O)c1[nH]c2ccc(Cl)cc2c1NC(=O)c1ccccc1[N+](=O)[O-] | inconclusive: -19.4% | 
59 | O=C(COC(=O)c1cc2c(s1)CCC2)Nc1ccc(F)cc1 | inconclusive: 17.2% | 
61 | COc1cc(S(=O)(=O)N2CCCCCC2)ccc1Cl | inconclusive: 41.8% | 
62 | S=c1[nH]nc(-c2ccc(Cl)cc2Cl)n1-c1ccccc1 | inconclusive: -17.6% | 
67 | CN(CC(=O)Nc1ccccc1C(F)(F)F)C(=O)Cc1ccccc1F | inconclusive: 156% | 
69 | O=C(COC(=O)Cc1cccc(F)c1)NCCc1ccccc1 | inconclusive: 1.78% | 
